Screening data, single-dose tests

T. brucei: 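Whole-parasite assay of Trypanosoma brucei over 72 hours; the read-out is not stated. Compounds at 30 µM. Direction is inferred from retests: higher values go with stronger inhibition. Values scatter widely below zero; nearly all retest evidence comes from the higher of the two concentrations used. About 64,000 compounds were tested under these conditions; 1.5% (about 940) showed 50% or more at least once.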
Leishmania in macrophages: 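Cell assay of Leishmania donovani living inside macrophages; the read-out is not stated. Compounds at 30 µM. The record gives no direction; compounds that gave an IC50 in retests scored well above the rest, so higher reads as stronger inhibition. About 69,000 compounds were tested under these conditions; 1.5% (about 1,000) showed 50% or more at least once.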
Toxoplasma: 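Assay of Toxoplasma gondii numbers, read through their beta-galactosidase reporter with a colour substrate. Compounds at 10 µM. The record gives no direction; the compounds picked for IC50 retests had high values, so higher reads as fewer parasites. About 67,000 compounds were tested under these conditions; 0.38% (about 260) showed 50% or more at least once.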

Results are given as percent effect.
The controls that fix the scale are not given in the record; negative values are as filed.
The compounds are a random part of those screened.
Two or more numbers in one place are separate tests of the same structure; such repeats can differ widely.
A dash means the value is not listed here; it may have been measured.

| # | Compound | T. brucei | Leishmania in macrophages | Toxoplasma |
|---|---|---|---|---|
| 1 | `CCc1ccc(CNC[C@H]2C[C@@H](CO)N(C)[C@H]2c2ccccc2F)o1` | 2.77 | 24.59 | -2.644 |
| 2 | `Cc1nn(C)c(N2CCCN(C)CC2)c1CNC(=O)CC(C)(C)C` | -5.532 | 27.47 | 1.142 |
| 3 | `COCCCn1cnnc1C(C)NC(=O)c1[nH]c2ccc(C)cc2c1C` (centres unmarked) | -25.63 | 0 | -17.74 |
| 4 | `Cc1cc(N2CCC(C(=O)N(C)C)CC2)nc(-c2ccncc2)n1` | - | 28.33 | 10.38 |
| 5 | `O=C(O)C(F)(F)F.[H][C@@]12C[C@@H](c3nc(C)no3)O[C@]1([H])CN(CC1CCOCC1)C2` | -232.5 | -13 | -2.028 |
| 6 | `Cc1cc(C)nc(C2CCN(C(=O)c3cnc(N(C)C)nc3)C2)n1` (centres unmarked) | -11.31 | 6.604 and 12.37 | -25.3 |
| 7 | `CCOc1ccccc1C1=CCN(C(=O)C2CCN(C)C(=O)C2)CC1` (centres unmarked) | -4.02 | -1.516 | -17.16 |
| 8 | `[H][C@@]12CN(C(=O)c3ccco3)C[C@]1([H])C(=O)N(Cc1cccc(C)c1)C2` | 9.142 | 21.13 | 0.7324 |
| 9 | `O=C(O)C(F)(F)F.c1ccc(-c2ccc3nc(C4CCN(CC5CC5)CC4)nn3c2)cc1` | 25.63 | 8.027 | 10.2 |
| 10 | `CCN1CCCC1CNC(=O)Cc1c(C)n[nH]c1-c1ccc(F)cc1` (centres unmarked) | 6.268 | 7.375 | 5.711 |
| 11 | `CCN1CCN(CC(O)c2cc(Cl)ccc2Cl)CC1` (centres unmarked) | -22.78 | 33.96 | -1.872 |
| 12 | `Cc1nn(C)c(N(C)C)c1CNC1CCOc2c(F)cccc21` (centres unmarked) | -44.52 | -15.92 | 2.399 |
| 13 | `O=C(Nc1cccnc1)C1CCN(c2cc(-n3ccnc3)ncn2)CC1` | 10.2 | 10.21 and 15.96 | -7.336 |
| 14 | `CC(CNC(=O)c1cnc[nH]1)Oc1ccccc1Br` (centres unmarked) | -35.67 | 38.92 | -3.023 |
| 15 | `[H][C@@]12CN(C(=O)c3ccc(N(C)C)cc3)C[C@]1([H])OCCN2C(C)C` | -18.16 | -15.71 | -6.082 |
| 16 | `CC(NC(=O)Cc1ccccc1F)(C(N)=O)c1cccc(Cl)c1` (centres unmarked) | -18.55 | 10.68 | -4.864 |
| 17 | `CC(C)CC(C#N)NC(=O)COC1CCCCC1` (centres unmarked) | -10.54 | 8.192 | 2.773 |
| 18 | `N#CCSCCCN1CCN(C(=O)c2ccccc2F)CC1` | -41.45 | 36.63 | 0.2727 |
| 19 | `COc1cc2ncn(CC(=O)NCCCN(C)C)c(=O)c2cc1OC` | -13.39 | -39.23 | 1.554 |
| 20 | `CCc1nc(C)c(C(=O)NCCNc2ncnc3sccc23)s1` | -3.14 | 59.68 | 23.29 |
| 21 | `COCCN1CC(C(=O)Nc2ccc3c(c2)CCC(=O)N3C)CC1=O` (centres unmarked) | 6.363 | 33.64 | 3.427 |
| 22 | `CC(C)(C)C(=O)N1CCC(c2nc(O)cc(-c3ccccn3)n2)CC1` | -25.25 | -19.91 | 5.189 |
| 23 | `Cc1cc(C)c(CNC(=O)Cc2ccc3c(c2)CCCC3)c(=O)[nH]1` | -12.61 | 6.889 | -3.35 |
| 24 | `O=C(c1ccncc1)N1CCCC(C2=Nc3ccccc3S(=O)(=O)N2)C1` (centres unmarked) | -23.62 | -11.91 | 6.104 |
| 25 | `COc1ccc(C(=O)NC2CC2)c(OC2CCN(C3CCC3)CC2)c1` | -7.045 | -7.597 | -2.592 |
| 26 | `CC(C(=O)Nc1ccc(Cl)cn1)N1CCc2nn(C)c(=O)cc2C1` (centres unmarked) | -22.96 | 3.253 | 4.019 |
| 27 | `[H][C@@]12CN(C3CCOCC3)C[C@]1([H])OCC(=O)N2Cc1ccccn1` | -12.06 | -69.5 | -4.617 |
| 28 | `Fc1ccc(NCc2ccncc2)c(OC(F)F)c1` | -27.42 | 22.22 | 10.11 |
| 29 | `Cc1nn(C)c(C)c1NC(=O)Nc1cccnc1N1CCCC1` | 3.845 | 1.127 | 4.545 |
| 30 | `CO[C@@H]1CC[C@@H](N(C)C(=O)COc2ccc(F)cc2)[C@H]1O` | -28.06 | -20.57 | -1.022 |
| 31 | `[H][C@]12CC[C@]([H])(CN(C(=O)Cc3c(C)nc(C)[nH]c3=O)C1)N(CC1CCC1)C2` | 7.102 | -12.3 | 4.944 |
| 32 | `Cc1cc(-n2c(C)cn(CN(C)CC3CC3)c2=O)no1` | - | 5.924 | -8.704 |
| 33 | `COCCC(=O)N1CCCC1c1nc(C)c2c(n1)N(C)C(=O)CC2` (centres unmarked) | 4.521 | 17.97 | -8.244 |
| 34 | `[H][C@]12C[C@@H](C(=O)NCc3cccs3)CO[C@@]1([H])CCN(CC)C2` | -24.43 | -9.497 | -12.93 |
| 35 | `Cc1ccnc(NCc2cccc(OCCN3CCOCC3)c2)n1` | -16.42 | -7.211 | -8.222 |
| 36 | `Cc1ccc(C(=O)N2CCSCC2)cc1NC(=O)Cn1cncn1` | 18.25 | 24.83 | 10.2 |
| 37 | `[H][C@]12CC[C@]([H])(CN(Cc3ccncc3)C1)N(C(=O)CCn1cncn1)C2` | -30.07 | -23.94 | 2.029 |
| 38 | `Cn1cc(C[C@H]2[C@H](O)CCN2C(=O)C2CCCC2)cn1` | -54.23 | 9.731 and -2.4 | 4.74 |
| 39 | `O=C(NCCNC(=O)N1CCC(c2ccccc2)C1)C1CC1` (centres unmarked) | 8.118 | 16.78 | -4.501 |
| 40 | `CC(C)c1nc2c(n1C)CCN(Cc1cccc(OCC(N)=O)c1)C2` | -2.372 | 29.68 | -29.45 |
| 41 | `O=C(c1cccn1Cc1cccs1)N1CCN(C(=O)C2CC2)CC1` | 19.22 | 41.72 | 11.96 |
| 42 | `COCC1c2c(cnn2CC2CC2)CCN1Cc1ccc(OC)cc1` (centres unmarked) | 7.499 | 4.922 | 5.021 |
| 43 | `Cc1cc(N2CCCC2c2cnccn2)ncn1` (centres unmarked) | 15.17 | 11.1 | -3.908 |
| 44 | `Cc1nc(CCNC2CCN(Cc3ccccc3)C2)sc1C` (centres unmarked) | -17.04 | 8.286 | - |
| 45 | `[H][C@@]12C[C@@H](c3nnc(C4CC4)o3)O[C@]1([H])CN(C(=O)c1cscn1)C2` | -17.52 | 1.648 | -5.211 |
| 46 | `[H][C@]12CC[C@]([H])(CN(C(=O)CSCC3CC3)C1)N(Cc1ccccn1)C2=O` | -13.98 | 18.67 | 10.72 |
| 47 | `Cc1cnn(C2CCCN(C(=O)c3cc(C4CC4)on3)C2)c1` (centres unmarked) | -7.577 | -4.649 | 12.56 |
| 48 | `O=C(NCc1nncn1C1CC1)C1(c2ccc(F)cc2)CCOCC1` | -11.65 | 16.63 | -10.8 |
| 49 | `CC(C)CN1CCC(c2nc3c([nH]2)CC(C)(C)CNC3=O)C1` (centres unmarked) | 7.099 | 28.82 | -3.693 |

Some entries from above, unchanged:

* O=C(c1cccn1Cc1cccs1)N1CCN(C(=O)C2CC2)CC1 | T. brucei: 19.22%; Leishmania in macrophages: 41.72%; Toxoplasma: 11.96%
* Fc1ccc(NCc2ccncc2)c(OC(F)F)c1 | T. brucei: -27.42%; Leishmania in macrophages: 22.22%; Toxoplasma: 10.11%

Source: ChEMBL document CHEMBL3988442, “University of Dundee, Small-Polar-MMV Screening Library” (2021).